Experimental data published in publication PMC11849937.
No constants are given. Whether binding was seen depends on the method and setting. In cells and extracts the contact can be indirect. Some entries that bind do so weakly or less than the wild type. For some assays here: Sequences can lack the tags named with a protein.

Protein sequences, listed by entry. Tags and fused reporters are not part of them.
UniProt Q8N8Y2: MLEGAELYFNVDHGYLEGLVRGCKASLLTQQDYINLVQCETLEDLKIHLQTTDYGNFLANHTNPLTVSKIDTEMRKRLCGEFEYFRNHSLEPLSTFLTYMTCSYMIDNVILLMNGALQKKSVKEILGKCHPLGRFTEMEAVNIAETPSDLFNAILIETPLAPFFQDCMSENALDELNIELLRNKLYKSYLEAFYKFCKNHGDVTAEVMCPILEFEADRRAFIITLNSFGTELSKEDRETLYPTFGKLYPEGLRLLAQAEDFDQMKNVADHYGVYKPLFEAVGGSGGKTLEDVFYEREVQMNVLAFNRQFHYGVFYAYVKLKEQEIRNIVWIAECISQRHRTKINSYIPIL

Legend:
[1] = target: Flag-tagged ATP6V0D2 (ATPase H+ transporting V0 subunit d2) (UniProt Q8N8Y2); experiment: co-IP; 786O cells stably expressing flag-ATP6V0D2 immunoprecipitated by beads; blots for endogenous VPS41, VPS39 and RAB7
[2] = target: FLAG-tagged ATP6V0D2 (in 293T cells) (UniProt Q8N8Y2); experiment: co-IP; 293T cells cotransfected with FLAG-tagged ATP6V0D2, His-tagged RAB7 and His-tagged VPS41

Binder	binding [1]	binding [2]
VPS41 (endogenous) (protein, UniProt P49754 1-854) MAEAEEQETGSLEESTDESEEEESEEEPKLKYERLSNGVTEILQKDAASCMTVHDKFLALGTHYGKVYLLDVQGNITQKFDVSPVKINQISLDESGEHMGVCSEDGKVQVFGLYSGEEFHETFDCPIKIIAVHPHFVRSSCKQFVTGGKKLLLFERSWMNRWKSAVLHEGEGNIRSVKWRGHLIAWANNMGVKIFDIISKQRITNVPRDDISLRPDMYPCSLCWKDNVTLIIGWGTSVKVCSVKERHASEMRDLPSRYVEIVSQFETEFYISGLAPLCDQLVVLSYVKEISEKTEREYCARPRLDIIQPLSETCEEISSDALTVRGFQENECRDYHLEYSEGESLFYIVSPRDVVVAKERDQDDHIDWLLEKKKYEEALMAAEISQKNIKRHKILDIGLAYINHLVERGDYDIAARKCQKILGKNAALWEYEVYKFKEIGQLKAISPYLPRGDPVLKPLIYEMILHEFLESDYEGFATLIREWPGDLYNNSVIVQAVRDHLKKDSQNKTLLKTLAELYTYDKNYGNALEIYLTLRHKDVFQLIHKHNLFSSIKDKIVLLMDFDSEKAVDMLLDNEDKISIKKVVEELEDRPELQHVYLHKLFKRDHHKGQRYHEKQISLYAEYDRPNLLPFLRDSTHCPLEKALEICQQRNFVEETVYLLSRMGNSRSALKMIMEELHDVDKAIEFAKEQDDGELWEDLILYSIDKPPFITGLLNNIGTHVDPILLIHRIKEGMEIPNLRDSLVKILQDYNLQILLREGCKKILVADSLSLLKKMHRTQMKGVLVDEENICESCLSPILPSDAAKPFSVVVFHCRHMFHKECLPMPSMNSAAQFCNICSAKNRGPGSAILEMKK	binds	
His-tagged VPS41 (in 293T cells) (protein, UniProt P49754 1-854) MAEAEEQETGSLEESTDESEEEESEEEPKLKYERLSNGVTEILQKDAASCMTVHDKFLALGTHYGKVYLLDVQGNITQKFDVSPVKINQISLDESGEHMGVCSEDGKVQVFGLYSGEEFHETFDCPIKIIAVHPHFVRSSCKQFVTGGKKLLLFERSWMNRWKSAVLHEGEGNIRSVKWRGHLIAWANNMGVKIFDIISKQRITNVPRDDISLRPDMYPCSLCWKDNVTLIIGWGTSVKVCSVKERHASEMRDLPSRYVEIVSQFETEFYISGLAPLCDQLVVLSYVKEISEKTEREYCARPRLDIIQPLSETCEEISSDALTVRGFQENECRDYHLEYSEGESLFYIVSPRDVVVAKERDQDDHIDWLLEKKKYEEALMAAEISQKNIKRHKILDIGLAYINHLVERGDYDIAARKCQKILGKNAALWEYEVYKFKEIGQLKAISPYLPRGDPVLKPLIYEMILHEFLESDYEGFATLIREWPGDLYNNSVIVQAVRDHLKKDSQNKTLLKTLAELYTYDKNYGNALEIYLTLRHKDVFQLIHKHNLFSSIKDKIVLLMDFDSEKAVDMLLDNEDKISIKKVVEELEDRPELQHVYLHKLFKRDHHKGQRYHEKQISLYAEYDRPNLLPFLRDSTHCPLEKALEICQQRNFVEETVYLLSRMGNSRSALKMIMEELHDVDKAIEFAKEQDDGELWEDLILYSIDKPPFITGLLNNIGTHVDPILLIHRIKEGMEIPNLRDSLVKILQDYNLQILLREGCKKILVADSLSLLKKMHRTQMKGVLVDEENICESCLSPILPSDAAKPFSVVVFHCRHMFHKECLPMPSMNSAAQFCNICSAKNRGPGSAILEMKK		binds
